Experimental data taken from paper doi:10.1101/2024.09.27.614885.
Read-outs that look alike come from different tables or passages of the source. Results are given in words; binding and its absence hold for the method and conditions named. In cells and extracts the contact can be indirect. Some entries that bind do so weakly or less than the wild type.

The chains behind the UniProt entries cited, without tags or fusion partners.
UniProt P34241: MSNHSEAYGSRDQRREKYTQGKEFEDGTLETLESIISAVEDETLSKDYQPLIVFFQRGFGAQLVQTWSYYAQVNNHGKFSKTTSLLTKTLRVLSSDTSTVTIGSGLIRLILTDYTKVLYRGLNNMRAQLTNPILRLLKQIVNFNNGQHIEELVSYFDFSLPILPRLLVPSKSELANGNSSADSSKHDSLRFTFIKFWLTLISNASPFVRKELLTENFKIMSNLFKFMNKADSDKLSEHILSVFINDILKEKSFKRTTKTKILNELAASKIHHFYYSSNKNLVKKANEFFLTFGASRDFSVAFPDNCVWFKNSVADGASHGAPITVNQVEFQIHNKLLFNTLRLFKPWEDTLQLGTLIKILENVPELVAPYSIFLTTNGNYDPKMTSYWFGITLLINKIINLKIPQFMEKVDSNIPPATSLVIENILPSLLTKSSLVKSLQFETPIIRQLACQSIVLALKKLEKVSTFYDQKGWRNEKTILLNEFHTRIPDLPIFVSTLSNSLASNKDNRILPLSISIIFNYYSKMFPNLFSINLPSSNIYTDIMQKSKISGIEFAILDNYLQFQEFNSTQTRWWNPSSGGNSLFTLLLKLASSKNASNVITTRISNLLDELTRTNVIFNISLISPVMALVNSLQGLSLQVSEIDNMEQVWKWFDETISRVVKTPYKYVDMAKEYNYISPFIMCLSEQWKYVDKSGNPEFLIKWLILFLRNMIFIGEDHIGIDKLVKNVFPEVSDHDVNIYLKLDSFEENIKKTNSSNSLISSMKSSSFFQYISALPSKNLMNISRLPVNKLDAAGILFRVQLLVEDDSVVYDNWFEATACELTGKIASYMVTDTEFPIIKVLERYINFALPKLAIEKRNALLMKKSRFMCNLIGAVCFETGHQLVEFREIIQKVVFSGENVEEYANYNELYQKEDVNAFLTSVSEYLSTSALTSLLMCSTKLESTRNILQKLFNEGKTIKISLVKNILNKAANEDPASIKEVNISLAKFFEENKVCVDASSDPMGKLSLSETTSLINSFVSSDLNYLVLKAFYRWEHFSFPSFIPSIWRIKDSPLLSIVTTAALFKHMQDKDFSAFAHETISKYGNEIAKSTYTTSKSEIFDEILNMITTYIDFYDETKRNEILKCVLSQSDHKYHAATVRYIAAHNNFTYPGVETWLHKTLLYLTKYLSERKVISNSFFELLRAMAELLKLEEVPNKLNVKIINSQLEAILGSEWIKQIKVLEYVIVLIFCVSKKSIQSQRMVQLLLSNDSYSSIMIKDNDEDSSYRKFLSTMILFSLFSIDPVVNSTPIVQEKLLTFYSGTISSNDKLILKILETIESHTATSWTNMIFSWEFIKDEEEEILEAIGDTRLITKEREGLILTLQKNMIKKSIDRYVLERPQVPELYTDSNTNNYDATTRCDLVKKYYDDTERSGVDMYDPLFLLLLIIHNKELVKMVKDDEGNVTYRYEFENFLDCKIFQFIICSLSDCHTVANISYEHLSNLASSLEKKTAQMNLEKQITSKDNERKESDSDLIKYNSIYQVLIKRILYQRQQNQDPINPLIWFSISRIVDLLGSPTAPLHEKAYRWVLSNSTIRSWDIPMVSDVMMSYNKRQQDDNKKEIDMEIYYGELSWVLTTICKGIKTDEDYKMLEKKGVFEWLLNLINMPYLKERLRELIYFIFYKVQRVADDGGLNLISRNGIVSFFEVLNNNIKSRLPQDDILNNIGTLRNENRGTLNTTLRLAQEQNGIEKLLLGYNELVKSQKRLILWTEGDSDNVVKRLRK

Legend:
[1] = molecular target: T1, Rsa3-FPZ (S. cerevisiae) (UniProt Q05942); test: co-IP
T1 sequence: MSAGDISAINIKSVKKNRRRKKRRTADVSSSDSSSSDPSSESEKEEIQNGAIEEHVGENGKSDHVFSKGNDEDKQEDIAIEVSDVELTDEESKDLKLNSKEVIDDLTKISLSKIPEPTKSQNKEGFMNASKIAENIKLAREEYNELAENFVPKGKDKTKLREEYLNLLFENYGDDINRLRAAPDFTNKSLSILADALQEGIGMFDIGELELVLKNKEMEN

[2] = molecular target: T1, Rsa3-FPZ (S. cerevisiae); test: co-IP; remark: listed apart in the source

Q: What does the source list for Npa1 (from UniProt P34241 1-1764)?
A: binding [1]: binds; binding [2]: binds
